The series in a line: general procedure: Fmoc solid-phase peptide synthesis; TentaGel-PAP resin (Rapp Polymere, Germany). The conditions noted are these: whole synthesis, analytical HPLC.

As for “(C14)2-dap-Trp-Ile-Pro-Val-Ser-Leu-Arg-Ser-Gly-Glu-Glu-Glu-Glu-PEG2000-OH”, the “final HPLC purity” value is on record as greater than 98%.
